Out of some 31,000 sequences screened, about 1,400 (4.5%) were called active.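 How the source made its calls: active means median seed-adjusted z-score above 1 or below -1; inactive means the rest.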 Some of the results follow.
test: Novel Modifiers of Survival Motor Neuron (SMN) Protein: Gene Identification via Genome-wide siRNA Screen; details: HEK293T SMN2-luciferase reporter, siRNA knockdown, 72 h; actives lie on both sides;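 further: luminescence tracks full-length SMN protein made from the SMN2 reporter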
In short: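 HEK293T cells stably carrying an SMN2 promoter/splicing cassette–luciferase reporter were reverse-transfected with 1 pmol siRNA per well (druggable-genome library, 3 siRNAs per gene) and grown 72 h at 37 °C. Luminescence, normalized to negative-control siRNA and log10-transformed, was scored as MAD.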

Sequence	median seed-adjusted z-score
GCCUUUACCCUUGAAGAAATT against ME3	inactive: 0.166
GAAAUGGGCCGGAAACGAATT against CPSF3L	inactive: -0.385
CCGGUGACAUGAAAGAACUTT against SLC14A1	inactive: -0.0585
CUCUAACCGUGGUUCCAGATT against SUPT16H	active: 1.2
GGCUACUACUUAUACUGGATT against PLCB2	inactive: 0.0845
GGAAGAUUCUUUAUGGGUATT against ACAA2	inactive: 0.435
CGACAUAACUAUGUUCGGATT against ETF1	active: -1.12
CCAUUGACUGUAACUGCAATT against ZNF239	inactive: -0.191
GUAUGGUACUAUGAAGUAATT against RSPRY1	inactive: 0.0814
CUAACUCCACCGAACGAUATT against B3GNTL1	inactive: 0
GUACUAGAGAAAUCAAUAATT against RAD54B	inactive: -0.257
CAUGAUCAAUGGAACUUCUTT against SCARB1	inactive: 0.0715
GUCGAGUUGUAUCGCAUUATT against COX4I1	inactive: -0.39
CCUGCUGAAUCUCACGGAATT against HOXD3	inactive: 0.233
GAAGCGGUAUAAUCGAGAATT against GDPD1	inactive: 0.527
CACCAGUUGUUGUACAGCATT against NUP155	inactive: 0.141
CCUCGGCCGUCAUGAAGAATT against RUNX3	inactive: -0.489
AUACUACGUUGAUUACAAATT against LRRTM1	inactive: -0.528
CCAGGCUUCUUUUGCAGGATT against PMVK	inactive: 0.269
GAGUUCUAUUAAGACGGUUTT against PDZD8	inactive: 0.0582
CUAUCUAUGACCAAACCUATT against THBS2	inactive: -0.721
GAUUCAGGGCUUAAACGUATT against PEG3	inactive: 0.5

Sequence	median seed-adjusted z-score
CCGACUUCCAGUUCAAGGATT against HCCA2	inactive: 0.862
CAUCUUGCCUCAUAGAACATT against LOC91431	inactive: 0.0402
CAAUAUAGUAGAGAUGAAATT against DDAH1	inactive: 0.138
CAGCUGUUCUCAUAUGCUATT against ATP5G3	inactive: 0
GAUUAUAUUUGUCCAGCUATT against ESR2	active: -1.1
AGAUGGUCCAAGAUCCAGATT against CHRM4	inactive: -0.856
GGAUCAGUUGAGUCGUUUATT against SCYL2	inactive: -0.0652
CCAGGAAAAAUCAAACGUATT against RCL1	inactive: 0.0807
CAUGCAACCCUGAGAGCAATT against UNQ2541	inactive: -0.954
GGAUUUGGGUAAAGUCACATT against ZNF483	inactive: 0
CCUUAAUCCUUUGUUAACATT against KPNA6	active: -1.54
GGUCCAGAUCUACAACCCATT against ST3GAL2	inactive: -0.139
GAGACAGAGUGUCAGAGUATT against TRPT1	inactive: -0.671
CCCUACCUUUGGUGGAAAATT against ELOVL1	inactive: 0.564
GCAGUUCGAGAAGAACUUUTT against LMBR1	inactive: 0.236
GCUUGAGUAUAGAUAAAGATT against PAM	inactive: 0
GCCUGUUAUCGACUACAUUTT against 7-Sep	inactive: -0.00715
GCCUGAAAACAAACCAGAATT against BAG3	inactive: -0.443
GCAAGAAAAGCGCAGAGAATT against MSX1	inactive: 0.757
GGAAAACUACUGUCGAAAUTT against HGF	inactive: -0.569
CCAGUAAUCUGAUAAAUAATT against COX7A2	inactive: -0.0808
GAACUUUCCUAAUGGUGUUTT against CPM	inactive: 0.549

2 neighbouring records from above:
Sequence	median seed-adjusted z-score
GGAUCAGUUGAGUCGUUUATT against SCYL2	inactive: -0.0652
CCAGGAAAAAUCAAACGUATT against RCL1	inactive: 0.0807

Following part.

Sequence	median seed-adjusted z-score
UCAUCUCUAUUGUUGCUGUTT against PSEN1	inactive: -0.679
CGACCAGGAUGGAUACAUUTT against RASGRP1	inactive: -0.392
AGCUGAUGUUCGAGCAGUATT against ACTL6B	inactive: 0.0703
GGAGGAUGACUUGAACGCATT against CFD	inactive: -0.0604
GGAGCAUAUGAUCAACAAATT against PHTF2	inactive: 0.389
CCACGAGAUUUUAAGCGCATT against HEPHL1	inactive: 0.0681
UCACGAAGCUCAGAGAUUATT against SLC25A29	inactive: 0.642
GCGUGACAAUGGUUGGAGATT against OSBPL11	inactive: 0.535
GCCUUAAGGUCAAGGUCUATT against UNC5B	inactive: -0.0207
CAGUGGAAUUUAUGUGCAATT against HTRA3	inactive: 0.291
CGGCAACAUCGGAAUCUGUTT against KRT37	inactive: 0.0484
GCAUAGGUGUCAUCGGCAATT against ATP11A	inactive: 0.158
GCAGAAAUGUUUCGUAGAATT against CDK6	inactive: 0
CCACAUUGUCAGUGAAUUATT against SULT6B1	inactive: 0
GCUUUAUAAGUGUAGCGAATT against ZNF749	inactive: 0.911
CAGUCGAGAUUAUCGUAGATT against SFRS10	inactive: -0.071
ACAGAAUACAGGCUGGUGATT against CSDA	inactive: 0
GUCAAGAUAUCAUAGCUAUTT against NDST4	inactive: 0.426
CCAUUGUCCCAGACUCGAATT against MARK3	inactive: 0.271
CCUGGAAGGUUAUCGGAAATT against ATP10D	inactive: -0.35
CGGGAGCAUUCGCUCAUUATT against LMAN2	inactive: -0.0921
GCAGGACCGAUAUGCCUUATT against NAGA	inactive: -0.247

Sequence	median seed-adjusted z-score
GGAUAGAUUUCUUCGAGAATT against LARP7	inactive: -0.483
GAGUGUAACAUCGUAGUAATT against DHX9	inactive: -0.687
CAGUGUUAAUUGUGCAAGATT against USP9X	inactive: -0.443
GGAAGGUUCAUGCUAGAGATT against SLC8A1	inactive: 0.221
CCAUCUCCUACAUCGCCGATT against APBA2	active: 1.66
CACUGAUUGAUGUCAAUGATT against CDH3	inactive: -0.138
CCAACGAGCUGAGAAAUAATT against STX6	inactive: 0.748
CGACGAUUCGUGCUUAAUATT against MYO5C	inactive: 0
GAUAUGUUGCUGCUAUUAATT against DLD	inactive: 0.377
CGCAGACGAUAUUGACAAATT against APOL6	inactive: -0.167
GGAUAUUUCGCAGAGGAAATT against ZNF763	inactive: 0.236
GAGUCGGAGUACUCAGUAATT against BMP5	inactive: 0.0733
GCAUCCCAGUGAACUGUGATT against PNMA1	inactive: 0.2
GCCUUAAUCUGGAUCAUAATT against PLOD3	inactive: -0.258
GACUGUUACAGAUCGGAAATT against NKIRAS1	inactive: 0.113
CGUGAUAACGGCUAAGGAATT against MYF6	inactive: -0.0315
GGAGCAACGAGAGAAACAATT against RNMTL1	inactive: 0.174
AGAGCAUUGAGAUCGAGAATT against RAB11FIP3	inactive: 0.0361
GGAAGACAGUAAAACUUUUTT against FHOD1	inactive: -0.114
GGCGAGAAGAGCAACGUAATT against DDX46	active: -1.24
CGAGUUUGAUGAAAGAGGATT against NT5E	inactive: 0.199
CACUGCAGCUUGAAUGAGATT against EPO	inactive: 0.148

Given with each value named: part of the list above.
CACUGAUUGAUGUCAAUGATT against CDH3
  median seed-adjusted z-score: inactive: -0.138
GAGUCGGAGUACUCAGUAATT against BMP5
  median seed-adjusted z-score: inactive: 0.0733

Next part

Sequence	median seed-adjusted z-score
GCCCAUUCAGUGGAACGAATT against GLI3	inactive: 0.143
GCAUCUCAUCGGAAGAGGATT against MAP3K12	inactive: -0.6
GUGAGAAGCAGCUACCGUATT against FADS6	inactive: -0.637
CUGUAAGAUUAAAUCCCAATT against TMTC4	active: -1.16
CCAUUGUCAAAAGAUUUCUTT against CDC14C	inactive: 0.437
GCCCUGCUCUUUGUACUCUTT against BCAT1	inactive: -0.604
CCACCUAUGCUAUCAACGUTT against VKORC1	inactive: -0.754
GUACCACCGGGAGCUCAAATT against LRTM2	inactive: 0.465
UGCUAUUCAUCUUUCCCGATT against TRIM11	inactive: -0.251
GACAGGGAAUGAUCACAUUTT against PDE9A	inactive: 0.708
CAGCGCAUGUGGAACUACATT against GRIK5	inactive: -0.242
AGAUUGUCAUCGUCCAGUUTT against ATP2B3	inactive: 0.0848
GAAUCGAUAUAGAUGCAGATT against SLC5A4	inactive: 0.602
GCACGACCCAAAUCCGAAUTT against PCDHGB2	inactive: -0.429
AGGUCUUUACUUUCCUGAATT against GPX6	inactive: 0.35
GAGAGAUUGUGAUUGGAGATT against BHMT	inactive: 0
CCACCCGGACGAUAUCUUUTT against PPARA	inactive: 0.113
GACCGUACGAGGCAAGUAATT against PAX1	inactive: -0.111
GGUCAGACCAGUAACAAAATT against E2F6	inactive: -0.299
CUACCUCAGUAAUCACAAUTT against EPHA1	inactive: -0.092
